According to PubChem BioAssay AID1347426 (Functional Genomics Laboratory (NCATS/FGL), 2020):
Among all 31,000 sequences or so, about 1,400 (4.5%) were called active.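 The calls were made as follows: active = median seed-adjusted z-score above 1 or below -1; inactive = the rest.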 This is one part of the list.

Assay: Novel Modifiers of Survival Motor Neuron (SMN) Protein: Gene Identification via Genome-wide siRNA Screen;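 also: luminescence tracks full-length SMN protein made from the SMN2 reporter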
Conditions: HEK293T SMN2-luciferase reporter, siRNA knockdown, 72 h; actives lie on both sides
Procedure, shortened: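 siRNA screen, 10418 genes ×3 siRNAs; 1 pmol/well, lipid reverse transfection into HEK293T SMN2-luc reporter line. 72 h, 37 °C, 5% CO2; ONE-Glo readout. Data: neg-ctrl normalized, log10, MAD; hit = MAD >1.0 or < -1.0.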

Row | Sequence | median seed-adjusted z-score
1 | CAGACAGUGGAGUACCUCATT against LARP7 | inactive: -0.483
2 | GCAUACUUCUGUGAGAACATT against TNFRSF13B | inactive: 0.152
3 | CAGUGAUAGGAACACCAUUTT against STK4 | inactive: 0.652
4 | GCACUAAGAUUGAUUGGAATT against CAPZA2 | inactive: 0
5 | CCAUGGAUGAAAAUUCGAATT against ACADSB | inactive: -0.436
6 | AGCGCAAAGUGAACAAGAATT against CDX1 | inactive: 0
7 | CAGAAAUCCUGAACUAUGATT against STK17B | inactive: -0.971
8 | GGAUGAGUACGAUACCGAATT against ZDHHC17 | inactive: 0.526
9 | GGGCGGCACCAGAUUGUUATT against NPM3 | inactive: 0.0417
10 | GACCUGAUGUUCGACCUGATT against SOX11 | inactive: 0.02
11 | GGAAUGGUCUGGUACAUGUTT against SLC17A6 | inactive: 0.339
12 | GCAAUUUGAUUCGUUCAGATT against TRIP12 | inactive: 0.16
13 | GUAUACCGGUCAUACCGUATT against ZNF223 | inactive: 0.367
14 | GCUGGGAAAGUAGAAGAAATT against CCNK | inactive: -0.717
15 | CCAACAUACUAGUCAAUAATT against EFTUD1 | active: -1.39
16 | AGACUUUCGAACAAACAAATT against NKX6-1 | inactive: -0.0317
17 | GCCGAGGAACAAUCUCUCATT against RASGRP4 | inactive: 0.162
18 | UCGGUGACGUGAUCCAGAATT against FGD2 | inactive: 0.0293
19 | GAUUUUGGUUUCUCAUGUATT against GPR174 | inactive: -0.324
20 | AGAAGACCCGUAGACUGAATT against NEUROG2 | inactive: -0.366
21 | AGAUCAUCCUGACCGUGGATT against GUCY2D | inactive: 0
22 | GAAUGCCUUCCAUUAGAUATT against RG9MTD1 | inactive: -0.375
23 | CAGCGACUCUGUAAGCACATT against CRTAM | inactive: 0.346
24 | GGAUUCAGCUAUUCUGGAATT against BAK1 | inactive: 0.0419
25 | AAAACUUCGUUUCCAUCAATT against ZNF284 | inactive: 0.21
26 | GACUUCCCGGAGUUCCUGATT against CALM3 | inactive: 0.225
27 | CCAACAAACUCACCAUACATT against KREMEN1 | inactive: 0

Given with each value named: entries from further up.
AGAAGACCCGUAGACUGAATT against NEUROG2
  median seed-adjusted z-score: inactive: -0.366
AGAUCAUCCUGACCGUGGATT against GUCY2D
  median seed-adjusted z-score: inactive: 0
